# These are yes or no findings as the source states them, for the method shown. In cells and extracts the contact can be indirect. Some entries that bind do so weakly or less than the wild type.
# Protein sequences, listed by entry. Tags and fused reporters are not part of them. Residues count along the entry.
# UniProt P27467, residues 19-352: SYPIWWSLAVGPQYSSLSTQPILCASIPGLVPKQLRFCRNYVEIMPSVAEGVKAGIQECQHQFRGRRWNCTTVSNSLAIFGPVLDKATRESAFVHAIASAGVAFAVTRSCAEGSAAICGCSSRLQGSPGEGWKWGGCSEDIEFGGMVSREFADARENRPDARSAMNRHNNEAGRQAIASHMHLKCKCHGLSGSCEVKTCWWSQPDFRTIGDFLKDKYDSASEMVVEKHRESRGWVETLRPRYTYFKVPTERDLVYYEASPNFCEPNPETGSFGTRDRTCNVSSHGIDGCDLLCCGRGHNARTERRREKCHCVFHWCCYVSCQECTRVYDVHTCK
# Molecular target: mouse Wnt3a, His-tagged (mouse) (UniProt P27467)
# Test: co-IP; as a2; the synthetic peptide RH3 added to the culture media of the transfected cells as competitor; only the binder purified
binder,measurement,value
AWGRFLHTNCHPFLA [synthetic peptide RH3 from V3Nter CRD],binding,binds
